{
  "source": "patent US10732171B2",
  "about": "“Human skin sample methods and models for validating hypotheses for mechanisms driving skin pigmentation” (The Procter & Gamble Company, priority 2011, dated 2020)",
  "system": "tone genes of interest",
  "assay": "ex-vivo tissue culture exposed to compounds known to stimulate the pigmentation pathway, tone gene regulation",
  "format": "cell-based, human",
  "conditions": "p≤0.1, minimum of 2-10 experiments each",
  "note": "For at least one compound, name, drawing or mass did not settle the structure.",
  "data": [
    {"smiles": "C=C[C@@]1(C)CC(=O)[C@]2(O)[C@@]3(C)[C@@H](O)CCC(C)(C)[C@@H]3[C@H](O)[C@H](OC(C)=O)[C@@]2(C)O1", "note": "[Forskolin]", "values": [
      {"measurement": "regulation of tone genes of interest", "value": "up regulate one or more tone genes of interest"}
    ]}
  ]
}
